# Results: article PMC11628618
# Protein sequences, listed by entry. Tags and fused reporters are not part of them. Lines headed by an entry give the natural chain unless they say otherwise; changes in a name come on top.
# UniProt V6F519: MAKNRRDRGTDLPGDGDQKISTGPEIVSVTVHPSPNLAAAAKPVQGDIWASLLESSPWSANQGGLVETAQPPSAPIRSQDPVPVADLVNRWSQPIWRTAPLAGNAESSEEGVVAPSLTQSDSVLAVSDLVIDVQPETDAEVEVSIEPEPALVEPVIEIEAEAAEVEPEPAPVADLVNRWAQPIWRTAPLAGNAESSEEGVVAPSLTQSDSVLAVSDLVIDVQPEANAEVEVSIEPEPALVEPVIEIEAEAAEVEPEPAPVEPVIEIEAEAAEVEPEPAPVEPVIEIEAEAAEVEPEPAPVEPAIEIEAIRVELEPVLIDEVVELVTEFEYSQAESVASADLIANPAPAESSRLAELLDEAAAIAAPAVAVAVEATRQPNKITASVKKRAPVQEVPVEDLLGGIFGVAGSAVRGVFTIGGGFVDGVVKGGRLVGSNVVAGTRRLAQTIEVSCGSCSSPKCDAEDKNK
# Results are given in words; binding and its absence hold for the method and conditions named. For some of these results: Binding can be weak; no strength is given. For some of these results: Sequences can lack the tags named with a protein.
# T1: MamF, bacterial two-hybrid fusion (Magnetospirillum gryphiswaldense MSR-1) (UniProt Q6NE74)
# T1 sequence: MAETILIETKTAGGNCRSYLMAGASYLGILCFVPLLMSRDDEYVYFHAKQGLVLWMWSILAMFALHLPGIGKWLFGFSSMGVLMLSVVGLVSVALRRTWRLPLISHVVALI
# T2: MmsF, bacterial two-hybrid fusion (Magnetospirillum gryphiswaldense MSR-1) (UniProt A4U547)
# T2 sequence: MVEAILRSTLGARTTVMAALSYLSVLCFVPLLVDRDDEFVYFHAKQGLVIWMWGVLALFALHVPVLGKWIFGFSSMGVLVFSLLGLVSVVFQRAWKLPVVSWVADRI
# B1: MamG (protein, UniProt Q6NE75 1-84)
# chain: MIKGIAGVGGTALGVGGGVAAPPVSAAAVGSTLLAGKGVCLGLGLGLGAWGPVLLGVAGLACAASLCDYLKNRKAQAEASAEPA
# B2: Mms6 (protein, UniProt Q6NE76 1-136)
# chain: MGEMEREGATAKVGAGKVGAGKVGAAKAGAAPAAAQGAGTKVVAAQGAGTKVVAAQGAGAKAAAVGVGKVGAGAKAVGGTIWSGKGLALGLGMGLGAWGPLILGVVGAGAVYAYMKSRDIEAAQSDEEVELRDALS
# Columns and labels:
# Assay in all cases: two-hybrid; adenylate cyclase-based bacterial two-hybrid (BACTH), T18 and T25 fusions co-transformed into E. coli BTH101; spotted on M63 maltose/X-Gal/IPTG agar, 28 °C, one day; only homogeneous intense blue counted as positive
# [1] = biological target: T1, MamF, bacterial two-hybrid fusion (Magnetospirillum gryphiswaldense MSR-1)
# [2] = biological target: T2, MmsF, bacterial two-hybrid fusion (Magnetospirillum gryphiswaldense MSR-1)
# [3] = biological target: MmxF, bacterial two-hybrid fusion (Magnetospirillum gryphiswaldense MSR-1)
Molecule,binding [1],binding [2],binding [3]
"MamJ C-terminus (aa 334-426), bacterial two-hybrid fusion (from UniProt V6F519) (domain or fragment)",no binding,binds,
B1,,,no binding
B2,,,no binding
